PubChem BioAssay AID504764 – Drosophila RNAi Screening Center – 2011
Purpose: 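Genome-wide screen for regulators of Notch-driven gene expression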 (primary screen). System: Drosophila Kc167 cells. Reagents: long dsRNA against Drosophila genes. Time to read-out: about 5 days (4 days dsRNA, then 24 h after transfection). Treatment: transfection of constitutively active membrane-tethered Notch lacking the extracellular domain, read 24 h later. Measured: 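Firefly luciferase from an E(spl)m3 reporter with active Notch, plus control-promoter and uninduced reporter wells for normalisation; unnormalised counts, duplicate wells a and b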. Direction: induced reporter light, run 1, well a and induced reporter light, run 1, well b: higher = more light from the Notch target reporter with active Notch; control promoter light, run 1, well a and control promoter light, run 1, well b: higher = more light from the viral control promoter (cell number, transfection, viability); uninduced reporter light, run 1, well a: higher = more light from the Notch target reporter without active Notch. Hit rule: 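Wells with low control signal or poorly matching duplicates excluded; duplicates averaged; per source plate, z beyond ±2 for induced/control log2 ratio or beyond ±1.8 for induced/uninduced marks a hit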. Calls: active = modifier hit (raised or lowered Notch signal); inactive = not a hit.
In all, the deposit lists about 22,000 reagents; below is an unselected part of those that have a named target and a result. In the full data, 403 (1.9%) got an active call. 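Unnormalised raw counts per well; ratio z-scores behind the hit calls and whether each hit raises or lowers signal are not deposited.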 Not stated in the record: the amount of reagent.

gene knocked down,amplicon,"induced reporter light, run 1, well a","induced reporter light, run 1, well b","control promoter light, run 1, well a","control promoter light, run 1, well b","uninduced reporter light, run 1, well a",Call
ND5 (retired record),DRSC21281,1.24e5,1.60e5,1.48e5,1.79e5,11335,inactive
CG7115,DRSC02000,1.22e5,1.48e5,76515,81890,22325,inactive
CNMa,DRSC08405,1.11e5,1.25e5,1.70e5,2.07e5,6560,inactive
CG30148,DRSC06391,1.87e5,1.70e5,3.04e5,2.26e5,15132,inactive
CG2225,DRSC03722,1.95e5,2.84e5,1.96e5,1.79e5,15440,inactive
CG2225,DRSC03723,48015,39070,45970,46115,2765,inactive
twit,DRSC03210,2.24e5,2.46e5,1.76e5,1.71e5,16095,inactive
CG5770,DRSC06954,89290,87295,1.61e5,1.48e5,7915,inactive

Continued; the last 3 above are carried over.
gene knocked down,amplicon,"induced reporter light, run 1, well a","induced reporter light, run 1, well b","control promoter light, run 1, well a","control promoter light, run 1, well b","uninduced reporter light, run 1, well a",Call
CG2225,DRSC03723,48015,39070,45970,46115,2765,inactive
twit,DRSC03210,2.24e5,2.46e5,1.76e5,1.71e5,16095,inactive
CG5770,DRSC06954,89290,87295,1.61e5,1.48e5,7915,inactive
dsh,DRSC19803,99675,96745,1.77e5,1.77e5,7775,inactive
Spps,DRSC15856,28250,22925,26975,23280,4655,inactive
Or69a,DRSC11243,1.84e5,1.32e5,1.82e5,1.58e5,9420,inactive
betaNACtes3,DRSC20183,82915,79800,1.06e5,90585,12890,inactive
CG3124,DRSC04339,25690,24270,20690,28780,7338,inactive
CG7110,DRSC03011,2.17e5,2.16e5,2.04e5,2.05e5,22735,inactive
CG7110,DRSC03012,1.29e5,1.49e5,1.51e5,1.48e5,12395,inactive
Eps-15,DRSC04288,55595,55930,56350,45145,4635,inactive
CG15109,DRSC06536,95435,78855,1.02e5,1.23e5,8010,inactive
loaf,DRSC09130,1.40e5,1.56e5,1.24e5,1.50e5,9380,inactive
CG4462,DRSC15583,1.68e5,1.76e5,2.40e5,2.79e5,16340,inactive
CG15194 (retired record),DRSC19642,57650,63000,88025,95705,4290,inactive
CG15194 (retired record),DRSC19777,1.09e5,1.00e5,2.19e5,2.11e5,6970,inactive
